Read-outs that look alike come from different tables or passages of the source.
How the values were obtained:
[1] = tested on: SK mediated AHP currents (I-AHP) in dopaminergic neurons; assay type: cell-based, mouse
[2] = tested on: T-type calcium channels (low voltage-activated calcium currents); assay type: cell-based, mouse

With COCC(=O)O[C@]1(CCN(C)CCCc2nc3ccccc3[nH]2)CCc2cc(F)ccc2[C@@H]1C(C)C [mibefradil, Mibefradil] as the compound, how does the “Hill coefficient of I-AHP inhibition” value ([1]; mean dose-response) read?
Its value is 1.8.

And the “Hill coefficient of I-LVA inhibition” value ([2]; mean dose-response)?
The value was 2.3.

Which “Hill coefficient of I-AHP inhibition” value [1] does the source give for [Ni+2] [nickel] here?
The value was 1.3.

And the “Hill coefficient of I-LVA inhibition” value [2]?
The value was 0.9.

From patent US20030087799A1, “Modulation” (priority 2001, published 2003)
